Measured values reported in patent publication US20160046721A1.
Numbering of substitutions follows the chain as printed. Names and notes keep the numbering of the source. These are yes or no findings as the source states them, for the method shown. Some results given as binding are weak or reduced against the parent protein; the word gives no strength.

Chains of the proteins cited; added tags and fusions are not shown. Lines headed by an entry give the natural chain unless they say otherwise; changes in a name come on top. Residues count along the entry.
UniProt P03372, residues 302-595: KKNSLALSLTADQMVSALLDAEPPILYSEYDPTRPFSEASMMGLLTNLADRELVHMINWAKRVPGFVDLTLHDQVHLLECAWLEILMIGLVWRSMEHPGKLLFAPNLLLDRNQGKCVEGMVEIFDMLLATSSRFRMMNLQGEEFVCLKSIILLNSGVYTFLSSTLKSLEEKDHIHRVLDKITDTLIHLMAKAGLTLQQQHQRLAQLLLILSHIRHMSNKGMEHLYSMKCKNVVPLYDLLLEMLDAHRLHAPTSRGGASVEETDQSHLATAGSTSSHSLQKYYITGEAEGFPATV

B1: SNGHZD (C1L + C6H) (antibody, human IgG1, kappa, V domains shown)
VH: QVQLVQSGAEVKKPGASVKVSCKASGYTFTSHNMHWVRQAPGQGLEWIGAIHPVNGDTAYNQKFKGKATLTVDKSTSTAYMELSSLRSEDTAVYYCAREGYGSVDYWGQGTLVTVSS
VL: ETTVTQSPAFMSATPGDKVNISCITSTDIDDDMNWYQQKPGEAPILIISEGNTLRPGIPPRFSSSGYGTDFTLTINNIESEDAAYYFCLQSDNLPLTFGQGTKLEIKR
B2: SNGHZD (C2L + C5H) (antibody, human IgG1, kappa, V domains shown)
VH: B1 VH with M81L
VL: B1 VL with P44A
B3: SNGHZD (C1L + C5H) (antibody, human IgG1, kappa, V domains shown)
VH: B1 VH with M81L
VL: B1 VL
B4: SNGHZD (C2L + C6H) (antibody, human IgG1, kappa, V domains shown)
VH: B1 VH
VL: B1 VL with P44A

What was measured:
[1] = target: Fc-LBD-D27 (Fc-LBD with the C-terminal 27 amino acids deleted) (human) (UniProt P03372); assay: ELISA on coated Fc-LBD-D27, antibody in 5-fold dilutions
[2] = target: Fc-ER66 (fusion protein of Fc and ER-α66 ligand binding domain) (human) (UniProt P03372); assay: ELISA on coated Fc-ER66, antibody in 5-fold dilutions
[3] = target: Fc-LBD (fusion protein of Fc and ER-α36 ligand binding domain including the C-terminal 27 amino acids) (human); assay: ELISA on coated Fc-LBD, antibody in 5-fold dilutions from 10 ug/ml
[4] = target: T1, GV27 peptide (ER-α36 c-terminal 27 aa) (human); assay: ELISA on the coated 27-aa peptide, antibody in 5-fold dilutions from 10 ug/ml
T1 sequence (peptide): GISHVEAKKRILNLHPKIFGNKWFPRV

[5] = target: T2, biotinylated GV27 peptide (human); assay: competition ELISA: plate coated with SNGmB1 (1 µg/ml), biotinylated GV27 added together with the soluble antibody
T2 sequence (peptide, biotinylated (site not stated)): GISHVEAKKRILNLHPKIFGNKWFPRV

Binder	binding [1]	binding [2]	binding [3]	binding [4]	binding [5]
B1	no binding (tested: 10 ug/ml)	no binding (tested: 10 ug/ml)	binds	binds	binds
B2	no binding (tested: 10 ug/ml)	no binding (tested: 10 ug/ml)	binds	binds	binds
B3					binds
B4					binds
